Laboratory results: paper PMC3482241
Construct, isoform or probe ends are uncertain for at least one entry. No signal at the amounts used counts as a negative. Protein sequences can lack the tags named with them.

Target: T1, NFAT1 MutDBD R423A,Y426A,E429A (UniProt Q60591)
T1 sequence (looked up, limits assumed): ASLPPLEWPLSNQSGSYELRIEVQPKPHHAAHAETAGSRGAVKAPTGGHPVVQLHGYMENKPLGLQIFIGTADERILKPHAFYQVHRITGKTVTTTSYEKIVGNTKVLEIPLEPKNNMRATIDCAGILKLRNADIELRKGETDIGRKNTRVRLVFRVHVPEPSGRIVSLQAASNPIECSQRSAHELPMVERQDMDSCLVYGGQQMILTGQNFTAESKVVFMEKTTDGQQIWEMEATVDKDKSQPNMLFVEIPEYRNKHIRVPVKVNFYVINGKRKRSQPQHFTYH
Experiment: EMSA
Conditions: no binding at 10 nM, 100 nM, 500 nM or 1 uM protein, poly(dI:dC) 0.2 ug/reaction; EMSA: 10 mM HEPES pH 7.0, 125 mM NaCl, 10% glycerol, 0.25 mM DTT, 0.8 mg/mL BSA, 0.2 ug poly(dI:dC) in 20 uL, 20 min at room temperature; 4% native PAGE in 1x TBE; recombinant protein; protein details: Ni-NTA purified (His tag implied); label: 32P 5' end (T4 PNK)

“GCCCAAAGAGGAAAATTTGTTTCATACAG (double strand) [IL-2 promoter NFAT site oligonucleotide]”: no binding.
